Results are given in words; binding and its absence hold for the method and conditions named. For some of these results: In cells and extracts the contact can be indirect. Some entries that bind do so weakly or less than the wild type. For some of these results: Tags and fused reporters may be left off the sequences shown. Each block holds one molecule with its values, some of them ahead of it.
How the values were obtained:
[1] = molecular target: T1, EpCAM (epithelial cell adhesion molecule), full-length (UniProt P16422); experiment: co-immunoprecipitation, PS-2 N-terminal fragment detected (Figure 2A)
T1 sequence (looked up): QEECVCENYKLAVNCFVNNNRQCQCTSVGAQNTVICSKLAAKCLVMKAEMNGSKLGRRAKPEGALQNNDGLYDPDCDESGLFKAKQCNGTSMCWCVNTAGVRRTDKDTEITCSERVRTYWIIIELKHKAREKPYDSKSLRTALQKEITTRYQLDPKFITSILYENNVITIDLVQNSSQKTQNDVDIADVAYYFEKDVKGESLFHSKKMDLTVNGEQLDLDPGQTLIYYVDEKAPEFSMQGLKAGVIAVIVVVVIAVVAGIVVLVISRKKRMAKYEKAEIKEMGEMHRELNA

Sequences of proteins named here, by UniProt entry; tags and fusion partners are left off. Residues count along the entry.
UniProt P35222, residues 2-781: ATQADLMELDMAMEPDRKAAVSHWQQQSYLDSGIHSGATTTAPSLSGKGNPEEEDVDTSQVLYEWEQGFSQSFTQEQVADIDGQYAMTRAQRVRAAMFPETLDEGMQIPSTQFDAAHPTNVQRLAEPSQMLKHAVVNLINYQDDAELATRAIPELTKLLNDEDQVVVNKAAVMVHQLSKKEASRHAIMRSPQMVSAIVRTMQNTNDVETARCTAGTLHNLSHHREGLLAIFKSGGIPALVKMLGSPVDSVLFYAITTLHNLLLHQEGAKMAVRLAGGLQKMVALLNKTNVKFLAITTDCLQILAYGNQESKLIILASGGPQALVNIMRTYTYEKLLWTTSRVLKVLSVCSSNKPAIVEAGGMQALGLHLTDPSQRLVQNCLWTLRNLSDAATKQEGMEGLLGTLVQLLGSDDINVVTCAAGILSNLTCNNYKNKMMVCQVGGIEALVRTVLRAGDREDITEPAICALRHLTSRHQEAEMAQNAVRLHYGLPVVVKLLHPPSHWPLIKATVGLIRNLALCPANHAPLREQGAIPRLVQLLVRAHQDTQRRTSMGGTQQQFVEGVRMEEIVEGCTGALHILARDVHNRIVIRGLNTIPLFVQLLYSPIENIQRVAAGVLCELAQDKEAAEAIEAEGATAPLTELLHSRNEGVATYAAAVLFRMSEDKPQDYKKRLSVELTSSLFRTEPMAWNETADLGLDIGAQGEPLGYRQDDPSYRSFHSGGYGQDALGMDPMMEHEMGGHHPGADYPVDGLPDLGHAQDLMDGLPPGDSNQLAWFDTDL

[2] = molecular target: T1, EpCAM (epithelial cell adhesion molecule), full-length; experiment: co-immunoprecipitation with EpCAM from HEK293 stable transfectants, immunoblot
[3] = molecular target: T1, EpCAM (epithelial cell adhesion molecule), full-length; experiment: co-immunoprecipitation from HEK293-EpCAM-HA-FHL2 cells; the filing calls this interaction supposedly indirect via FHL2
[4] = molecular target: T1, EpCAM (epithelial cell adhesion molecule), full-length; experiment: co-immunoprecipitation from HEK293-EpCAM-HA-FHL2 cells
[5] = molecular target: β-catenin (endogenous) (human (HEK293 human embryonic kidney cells)) (UniProt P35222); experiment: as above
[6] = molecular target: T1, EpCAM (epithelial cell adhesion molecule), full-length; experiment: reciprocal co-immunoprecipitation from HEK293 transfectants
[7] = molecular target: T2, EpIC (intracellular domain of EpCAM) as yeast two-hybrid bait in pGBKT7 (UniProt P16422); experiment: yeast two-hybrid
T2 sequence (looked up): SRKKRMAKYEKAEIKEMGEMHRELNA

[8] = molecular target: T1, EpCAM (epithelial cell adhesion molecule), full-length; experiment: reciprocal co-immunoprecipitation from whole cell lysates of HEK293-EpCAM cells
[9] = molecular target: T1, EpCAM (epithelial cell adhesion molecule), full-length; experiment: co-immunoprecipitation of cell-free translated proteins (TNT) with EpEX-specific antibodies
[10] = molecular target: T1, EpCAM (epithelial cell adhesion molecule), full-length; experiment: GST pull-down of EpCAM from HeLa cell extracts

Molecule: presenilin-2 (PS-2) (from UniProt P49810 1-297) (enzyme)
binding [1]: binds | binding [2]: binds

B1: endogenous FHL2 (protein, UniProt Q14192 1-279, looked up)
chain: MTERFDCHHCNESLFGKKYILREESPYCVVCFETLFANTCEECGKPIGCDCKDLSYKDRHWHEACFHCSQCRNSLVDKPFAAKEDQLLCTDCYSNEYSSKCQECKKTIMPGTRKMEYKGSSWHETCFICHRCQQPIGTKSFIPKDNQNFCVPCYEKQHAMQCVQCKKPITTGGVTYREQPWHKECFVCTACRKQLSGQRFTARDDFAYCLNCFCDLYAKKCAGCTNPISGLGGTKYISFEERQWHNDCFNCKKCSLSLVGRGFLTERDDILCPDCGKDI
binding [4]: binds | binding [5]: binds | binding [6]: binds

B2: FHL2 cDNA clone from the HEK293 cDNA bank in pACT2 (yeast two-hybrid prey) (protein, UniProt Q14192 1-279, looked up, not shown: large carriers)
chain: MTERFDCHHCNESLFGKKYILREESPYCVVCFETLFANTCEECGKPIGCDCKDLSYKDRHWHEACFHCSQCRNSLVDKPFAAKEDQLLCTDCYSNEYSSKCQECKKTIMPGTRKMEYKGSSWHETCFICHRCQQPIGTKSFIPKDNQNFCVPCYEKQHAMQCVQCKKPITTGGVTYREQPWHKECFVCTACRKQLSGQRFTARDDFAYCLNCFCDLYAKKCAGCTNPISGLGGTKYISFEERQWHNDCFNCKKCSLSLVGRGFLTERDDILCPDCGKDI
binding [7]: binds

B3: HA-tagged FHL2 (protein, UniProt Q14192 1-279, looked up, not shown: small tags and cut ends)
chain: MTERFDCHHCNESLFGKKYILREESPYCVVCFETLFANTCEECGKPIGCDCKDLSYKDRHWHEACFHCSQCRNSLVDKPFAAKEDQLLCTDCYSNEYSSKCQECKKTIMPGTRKMEYKGSSWHETCFICHRCQQPIGTKSFIPKDNQNFCVPCYEKQHAMQCVQCKKPITTGGVTYREQPWHKECFVCTACRKQLSGQRFTARDDFAYCLNCFCDLYAKKCAGCTNPISGLGGTKYISFEERQWHNDCFNCKKCSLSLVGRGFLTERDDILCPDCGKDI
binding [8]: binds | binding [9]: binds

More lines, now with the values ahead:

binding [3]: binds
Molecule: β-catenin (endogenous) (from UniProt P35222 2-781)

binding [10]: binds
B4: wild-type FHL2 as recombinant GST-fusion (protein, UniProt Q14192 1-279, looked up, not shown: a dimerising Fc or GST)
chain: MTERFDCHHCNESLFGKKYILREESPYCVVCFETLFANTCEECGKPIGCDCKDLSYKDRHWHEACFHCSQCRNSLVDKPFAAKEDQLLCTDCYSNEYSSKCQECKKTIMPGTRKMEYKGSSWHETCFICHRCQQPIGTKSFIPKDNQNFCVPCYEKQHAMQCVQCKKPITTGGVTYREQPWHKECFVCTACRKQLSGQRFTARDDFAYCLNCFCDLYAKKCAGCTNPISGLGGTKYISFEERQWHNDCFNCKKCSLSLVGRGFLTERDDILCPDCGKDI
